According to US20060269928A1, “Compositions, methods and apparatus for supercritical fluid virus inactivation” (Aphios Corporation, priority 2005, published 2006):
Several values for one entry are separate records, joined by “and”; a condition that tells them apart may be missing. Equal values may be shown once. At least one compound was matched to its structure with a doubt left.

System: encephalomyocarditis (EMC) virus
Format: cell-based

FC(F)Cl [FREON-22, hydrodifluorochloromethane]
Titer After: 1 × 10^−0.3 and 1 × 10^0.2 and 1 × 10^−0.5 and 1 × 10^−0.4 and 1 × 10^2.1 and 1 × 10^2.0 and 1 × 10^0.6 and 1 × 10^1.6
